The values below come from doi:10.1101/2021.11.02.466878.

Chains of the proteins cited; added tags and fusions are not shown.
UniProt O94913: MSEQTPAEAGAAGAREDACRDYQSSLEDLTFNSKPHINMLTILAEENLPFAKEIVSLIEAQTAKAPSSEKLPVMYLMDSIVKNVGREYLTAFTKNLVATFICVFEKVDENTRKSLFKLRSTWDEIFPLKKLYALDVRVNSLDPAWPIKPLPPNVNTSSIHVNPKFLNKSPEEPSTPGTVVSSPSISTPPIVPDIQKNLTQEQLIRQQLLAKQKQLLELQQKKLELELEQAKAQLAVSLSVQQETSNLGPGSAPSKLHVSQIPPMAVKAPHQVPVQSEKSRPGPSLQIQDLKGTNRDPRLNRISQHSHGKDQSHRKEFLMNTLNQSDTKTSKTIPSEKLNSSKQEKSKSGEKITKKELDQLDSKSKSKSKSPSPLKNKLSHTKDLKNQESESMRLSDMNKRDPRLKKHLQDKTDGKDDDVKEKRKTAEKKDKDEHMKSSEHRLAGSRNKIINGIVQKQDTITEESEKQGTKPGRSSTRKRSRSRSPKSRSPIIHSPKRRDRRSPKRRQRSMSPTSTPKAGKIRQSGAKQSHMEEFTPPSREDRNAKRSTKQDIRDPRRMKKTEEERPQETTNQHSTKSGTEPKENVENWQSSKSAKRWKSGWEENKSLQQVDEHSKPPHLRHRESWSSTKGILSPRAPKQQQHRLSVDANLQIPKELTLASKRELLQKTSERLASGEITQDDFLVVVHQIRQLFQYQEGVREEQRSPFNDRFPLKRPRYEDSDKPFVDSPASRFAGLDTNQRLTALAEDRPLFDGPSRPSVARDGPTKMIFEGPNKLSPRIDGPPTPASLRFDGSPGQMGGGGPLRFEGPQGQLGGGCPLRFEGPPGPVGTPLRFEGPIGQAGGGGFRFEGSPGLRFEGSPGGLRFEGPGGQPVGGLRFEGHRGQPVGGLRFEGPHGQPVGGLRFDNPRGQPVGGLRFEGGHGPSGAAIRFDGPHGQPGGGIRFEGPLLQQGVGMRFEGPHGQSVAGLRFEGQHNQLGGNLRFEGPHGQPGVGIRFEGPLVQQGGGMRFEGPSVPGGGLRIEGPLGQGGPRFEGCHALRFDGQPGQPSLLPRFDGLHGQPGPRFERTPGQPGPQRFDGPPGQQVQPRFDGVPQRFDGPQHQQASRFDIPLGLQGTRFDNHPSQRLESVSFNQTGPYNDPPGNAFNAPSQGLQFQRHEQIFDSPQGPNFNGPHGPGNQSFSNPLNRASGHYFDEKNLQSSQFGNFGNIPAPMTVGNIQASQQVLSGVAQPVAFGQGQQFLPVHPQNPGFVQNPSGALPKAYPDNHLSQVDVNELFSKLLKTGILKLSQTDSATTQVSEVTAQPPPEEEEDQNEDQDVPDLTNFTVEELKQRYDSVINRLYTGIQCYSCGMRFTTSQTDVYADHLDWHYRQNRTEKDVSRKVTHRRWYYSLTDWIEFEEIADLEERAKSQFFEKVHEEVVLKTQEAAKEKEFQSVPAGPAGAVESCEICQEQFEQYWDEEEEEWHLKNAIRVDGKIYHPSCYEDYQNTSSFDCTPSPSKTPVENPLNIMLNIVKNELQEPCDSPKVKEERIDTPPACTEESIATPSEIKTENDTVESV

These are yes or no findings as the source states them, for the method shown. Some binding calls cover weakened binding; strength is not graded here. For part of these data: Sequences can lack the tags named with a protein.

One assay concerns the target hPcf11 (human) (UniProt O94913). Kind of assay: co-purification.
The target of a further assay is T1, FLAG-tagged CstF64τ (UniProt Q9H0L4).
T1 sequence: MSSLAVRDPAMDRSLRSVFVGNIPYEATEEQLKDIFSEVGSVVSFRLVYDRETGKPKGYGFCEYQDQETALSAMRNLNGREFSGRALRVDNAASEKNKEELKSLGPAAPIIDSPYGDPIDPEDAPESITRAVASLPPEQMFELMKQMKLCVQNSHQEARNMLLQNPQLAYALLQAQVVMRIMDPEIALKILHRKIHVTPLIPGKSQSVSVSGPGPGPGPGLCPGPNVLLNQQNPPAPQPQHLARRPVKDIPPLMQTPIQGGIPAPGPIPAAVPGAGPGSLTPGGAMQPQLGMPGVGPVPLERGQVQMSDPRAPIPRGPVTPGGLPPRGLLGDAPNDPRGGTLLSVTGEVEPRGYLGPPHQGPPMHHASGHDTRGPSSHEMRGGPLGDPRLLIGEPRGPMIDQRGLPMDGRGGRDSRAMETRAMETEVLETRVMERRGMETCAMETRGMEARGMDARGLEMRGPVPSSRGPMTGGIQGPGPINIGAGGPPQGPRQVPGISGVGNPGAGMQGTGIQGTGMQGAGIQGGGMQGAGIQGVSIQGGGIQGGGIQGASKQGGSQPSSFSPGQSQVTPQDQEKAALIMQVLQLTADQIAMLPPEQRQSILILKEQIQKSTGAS
Kind of assay: pull-down.

Assay [1] concerns the target T2, RBBP6_(1-335), FLAG-tagged, purified (human) (UniProt Q7Z6E9).
T2 sequence: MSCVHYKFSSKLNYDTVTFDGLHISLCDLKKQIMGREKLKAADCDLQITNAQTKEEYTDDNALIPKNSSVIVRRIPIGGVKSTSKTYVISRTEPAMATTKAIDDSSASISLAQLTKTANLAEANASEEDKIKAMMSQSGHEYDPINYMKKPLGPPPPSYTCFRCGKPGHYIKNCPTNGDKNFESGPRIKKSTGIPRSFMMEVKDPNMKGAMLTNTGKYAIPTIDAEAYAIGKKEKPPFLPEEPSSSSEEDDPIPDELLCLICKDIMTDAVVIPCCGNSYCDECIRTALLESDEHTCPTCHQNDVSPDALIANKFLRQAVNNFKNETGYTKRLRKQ
As to the kind of experiment: cross-linking.

B1: hClp1 R288A, R293K double mutant (enzyme, UniProt Q92989 1-425)
chain: MGEEANDDKKPTTKFELERETELRFEVEASQSVQLELLTGMAEIFGTELTRNKKFTFDAGAKVAVFTWHGCSVQLSGRTEVAYVSKDTPMLLYLNTHTALEQMRRQAEKEEERGPRVMVVGPTDVGKSTVCRLLLNYAVRLGRRPTYVELDVGQGSVSIPGTMGALYIERPADVEEGFSIQAPLVYHFGSTTPGTNIKLYNKITSRLADVFNQRCEVNRRASVSGCVINTCGWVKGSGYQALVHAASAFEVDVVVVLDQERLYNELKRDLPHFVRTVLLPKSGGVVEASKDFKRECRDERIREYFYGFRGCFYPHAFNVKFSDVKIYKVGAPTIPDSCLPLGMSQEDNQLKLVPVTPGRDMVHHLLSVSTAEGTEENLSETSVAGFIVVTSVDLEHQVFTVLSPAPRPLPKNFLLIMDIRFMDLK
Take B1: the binding entry in the assay with hPcf11 (human) is listed as “binds”.

B2: hClp1 E22Q (enzyme, UniProt Q92989 1-425)
chain: MGEEANDDKKPTTKFELERETQLRFEVEASQSVQLELLTGMAEIFGTELTRNKKFTFDAGAKVAVFTWHGCSVQLSGRTEVAYVSKDTPMLLYLNTHTALEQMRRQAEKEEERGPRVMVVGPTDVGKSTVCRLLLNYAVRLGRRPTYVELDVGQGSVSIPGTMGALYIERPADVEEGFSIQAPLVYHFGSTTPGTNIKLYNKITSRLADVFNQRCEVNRRASVSGCVINTCGWVKGSGYQALVHAASAFEVDVVVVLDQERLYNELKRDLPHFVRTVLLPKSGGVVERSKDFRRECRDERIREYFYGFRGCFYPHAFNVKFSDVKIYKVGAPTIPDSCLPLGMSQEDNQLKLVPVTPGRDMVHHLLSVSTAEGTEENLSETSVAGFIVVTSVDLEHQVFTVLSPAPRPLPKNFLLIMDIRFMDLK
For the molecule B2, the binding result with hPcf11 (human) is listed as “binds”.

B3: hClp1 E22A (enzyme, UniProt Q92989 1-425)
chain: MGEEANDDKKPTTKFELERETALRFEVEASQSVQLELLTGMAEIFGTELTRNKKFTFDAGAKVAVFTWHGCSVQLSGRTEVAYVSKDTPMLLYLNTHTALEQMRRQAEKEEERGPRVMVVGPTDVGKSTVCRLLLNYAVRLGRRPTYVELDVGQGSVSIPGTMGALYIERPADVEEGFSIQAPLVYHFGSTTPGTNIKLYNKITSRLADVFNQRCEVNRRASVSGCVINTCGWVKGSGYQALVHAASAFEVDVVVVLDQERLYNELKRDLPHFVRTVLLPKSGGVVERSKDFRRECRDERIREYFYGFRGCFYPHAFNVKFSDVKIYKVGAPTIPDSCLPLGMSQEDNQLKLVPVTPGRDMVHHLLSVSTAEGTEENLSETSVAGFIVVTSVDLEHQVFTVLSPAPRPLPKNFLLIMDIRFMDLK
As to B3, in the assay with hPcf11 (human), the binding entry is “binds”.

B4: CstF50 (protein, UniProt Q05048 1-431)
chain: MYRTKVGLKDRQQLYKLIISQLLYDGYISIANGLINEIKPQSVCAPSEQLLHLIKLGMENDDTAVQYAIGRSDTVAPGTGIDLEFDADVQTMSPEASEYETCYVTSHKGPCRVATYSRDGQLIATGSADASIKILDTERMLAKSAMPIEVMMNETAQQNMENHPVIRTLYDHVDEVTCLAFHPTEQILASGSRDYTLKLFDYSKPSAKRAFKYIQEAEMLRSISFHPSGDFILVGTQHPTLRLYDINTFQCFVSCNPQDQHTDAICSVNYNSSANMYVTGSKDGCIKLWDGVSNRCITTFEKAHDGAEVCSAIFSKNSKYILSSGKDSVAKLWEISTGRTLVRYTGAGLSGRQVHRTQAVFNHTEDYVLLPDERTISLCCWDSRTAERRNLLSLGHNNIVRCIVHSPTNPGFMTCSDDFRARFWYRRSTTD
For the molecule B4, in the assay with FLAG-tagged CstF64τ, the binding entry is on record as “binds”.

B5: symplekin, as subunit of purified recombinant CPSF or mCF3 (protein, UniProt Q92797 1-1274)
chain: MASGSGDSVTRRSVASQFFTQEEGPGIDGMTTSERVVDLLNQAALITNDSKITVLKQVQELIINKDPTLLDNFLDEIIAFQADKSIEVRKFVIGFIEEACKRDIELLLKLIANLNMLLRDENVNVVKKAILTMTQLYKVALQWMVKSRVISELQEACWDMVSAMAGDIILLLDSDNDGIRTHAIKFVEGLIVTLSPRMADSEIPRRQEHDISLDRIPRDHPYIQYNVLWEEGKAALEQLLKFMVHPAISSINLTTALGSLANIARQRPMFMSEVIQAYETLHANLPPTLAKSQVSSVRKNLKLHLLSVLKHPASLEFQAQITTLLVDLGTPQAEIARNMPSSKDTRKRPRDDSDSTLKKMKLEPNLGEDDEDKDLEPGPSGTSKASAQISGQSDTDITAEFLQPLLTPDNVANLVLISMVYLPEAMPASFQAIYTPVESAGTEAQIKHLARLMATQMTAAGLGPGVEQTKQCKEEPKEEKVVKTESVLIKRRLSAQGQAISVVGSLSSMSPLEEEAPQAKRRPEPIIPVTQPRLAGAGGRKKIFRLSDVLKPLTDAQVEAMKLGAVKRILRAEKAVACSGAAQVRIKILASLVTQFNSGLKAEVLSFILEDVRARLDLAFAWLYQEYNAYLAAGASGSLDKYEDCLIRLLSGLQEKPDQKDGIFTKVVLEAPLITESALEVVRKYCEDESRTYLGMSTLRDLIFKRPSRQFQYLHVLLDLSSHEKDKVRSQALLFIKRMYEKEQLREYVEKFALNYLQLLVHPNPPSVLFGADKDTEVAAPWTEETVKQCLYLYLALLPQNHKLIHELAAVYTEAIADIKRTVLRVIEQPIRGMGMNSPELLLLVENCPKGAETLVTRCLHSLTDKVPPSPELVKRVRDLYHKRLPDVRFLIPVLNGLEKKEVIQALPKLIKLNPIVVKEVFNRLLGTQHGEGNSALSPLNPGELLIALHNIDSVKCDMKSIIKATNLCFAERNVYTSEVLAVVMQQLMEQSPLPMLLMRTVIQSLTMYPRLGGFVMNILSRLIMKQVWKYPKVWEGFIKCCQRTKPQSFQVILQLPPQQLGAVFDKCPELREPLLAHVRSFTPHQQAHIPNSIMTILEASGKQEPEAKEAPAGPLEEDDLEPLTLAPAPAPRPPQDLIGLRLAQEKALKRQLEEEQKLKPGGVGAPSSSSPSPSPSARPGPPPSEEAMDFREEGPECETPGIFISMDDDSGLTEAALLDSSLEGPLPKETAAGGLTLKEERSPQTLAPVGEDAMKTPSPAAEDAREPEAKGNS
For B5, the binding result in assay [1] was “binds”.

B6: CstF77 (protein, UniProt Q12996 1-717)
chain: MSGDGATEQAAEYVPEKVKKAEKKLEENPYDLDAWSILIREAQNQPIDKARKTYERLVAQFPSSGRFWKLYIEAEIKAKNYDKVEKLFQRCLMKVLHIDLWKCYLSYVRETKGKLPSYKEKMAQAYDFALDKIGMEIMSYQIWVDYINFLKGVEAVGSYAENQRITAVRRVYQRGCVNPMINIEQLWRDYNKYEEGINIHLAKKMIEDRSRDYMNARRVAKEYETVMKGLDRNAPSVPPQNTPQEAQQVDMWKKYIQWEKSNPLRTEDQTLITKRVMFAYEQCLLVLGHHPDIWYEAAQYLEQSSKLLAEKGDMNNAKLFSDEAANIYERAISTLLKKNMLLYFAYADYEESRMKYEKVHSIYNRLLAIEDIDPTLVYIQYMKFARRAEGIKSGRMIFKKAREDTRTRHHVYVTAALMEYYCSKDKSVAFKIFELGLKKYGDIPEYVLAYIDYLSHLNEDNNTRVLFERVLTSGSLPPEKSGEIWARFLAFESNIGDLASILKVEKRRFTAFKEEYEGKETALLVDRYKFMDLYPCSASELKALGYKDVSRAKLAAIIPDPVVAPSIVPVLKDEVDRKPEYPKPDTQQMIPFQPRHLAPPGLHPVPGGVFPVPPAAVVLMKLLPPPICFQGPFVQVDELMEIFRRCKIPNTVEEAVRIITGGAPELAVEGNGPVESNAVLTKAVKRPNEDSDEDEEKGAVVPPVHDIYRARQQKRIR
As to B6, the binding entry with FLAG-tagged CstF64τ is given as “binds”.
